# Measured data: PubChem BioAssay AID1259405 (NCATS, 2018)
# Test: 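Mouse-designed siRNAs used to find CHO productivity engineering targets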 (primary screen)
# Cells: Chinese hamster CHO-K1 ovary cells with stable secreted eGFP expression
# Reagent: single siRNA against mouse genes, 0.8 pmol siRNA per well (2 µl of 400 nM stock)
# Time to read-out: 3 days
# Detection: 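Percent of the per-plate non-targeting control median for intracellular GFP per well by laser scanning cytometry and for cell viability by ATP luminescence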
# Scale: GFP, % of control: higher = more GFP per well, higher productivity; viability (ATP), % of control: higher = more viable cells (more ATP)
# Active means: 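Called active when intracellular GFP, relative to negative control, is at or above 120%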
# In all, the deposit lists about 50,000 reagents; this is an unselected part. In the full data, about 4,000 (8%) are marked active. 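Mouse siRNA library applied to hamster cells; one well for each siRNA.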 Reagents against one gene are numbered here. No sequences are given here.
Gene,siRNA no.,"GFP, % of control","viability (ATP), % of control",call
Lao1,1,87,53.9,inactive
Lao1,2,77.8,74.7,inactive
Lao1,3,53.2,81.7,inactive
Ngb,1,72.1,93.2,inactive
Ngb,2,70.5,55.7,inactive
Ngb,3,55.9,37.9,inactive
Slc71a2,1,38.4,35.8,inactive
Slc71a2,2,75.8,63.5,inactive
Slc71a2,3,62.2,88.2,inactive
Sp140,1,66.8,63.5,inactive
Sp140,2,94.6,55.8,inactive
Sp140,3,54.6,54,inactive
Tmem135,1,80.2,54.8,inactive
Tmem135,2,125,72.9,active
Tmem135,3,101,68.4,inactive
Ubxn6,1,92.9,62.3,inactive
Ubxn6,2,65.1,79.3,inactive
Ubxn6,3,99.2,112,inactive
Zfp536,1,42,54.3,inactive
Zfp536,2,81.1,80.5,inactive
Zfp536,3,107,81.4,inactive
Rexo5,1,121,90.7,active
Rexo5,2,90.9,65.8,inactive
Rexo5,3,78.6,55.8,inactive
Pms2,1,62.9,101,inactive
Pms2,2,60.7,73.2,inactive
Nusap1,1,77.4,89.9,inactive
Nusap1,2,117,108,inactive
Nusap1,3,78,40.8,inactive
Igfl3,1,67.3,91,inactive
Igfl3,2,89.2,83.8,inactive
Igfl3,3,69.6,87,inactive
Pde1a,1,132,87.5,active
Pde1a,2,71.2,80.6,inactive
Pde1a,3,98.3,102,inactive
Or10a3,1,43.5,56.9,inactive
Or10a3,2,159,97.9,active
Or10a3,3,46.7,49.1,inactive
Or8k32,1,61.7,68.8,inactive
Or8k32,2,84.3,67.9,inactive
Or8k32,3,89.9,123,inactive
Crisp1,1,96.5,82.9,inactive
Crisp1,2,86.6,108,inactive
Crisp1,3,92,122,inactive
Cyp4f13,1,75.8,91.4,inactive
Cyp4f13,2,102,104,inactive
Cyp4f13,3,72.4,79.1,inactive
Ap3s1,1,103,43.1,inactive
Ap3s1,2,76,52.2,inactive
Ap3s1,3,54.3,67.3,inactive
Srrm1,1,124,83,active
Srrm1,2,55.5,59.1,inactive
Klb,1,91,76.7,inactive
Klb,2,61.1,96.3,inactive
Klb,3,59.2,45.2,inactive
Kdm4c,1,51.1,59.5,inactive
Kdm4c,2,77.3,87.6,inactive
Kdm4c,3,96.8,30.1,inactive
Wac,1,62,70.5,inactive
Wac,2,124,49.9,active
Wac,3,78.3,99.2,inactive
B230340J04Rik,1,91.4,60.4,inactive
B230340J04Rik,2,75,83.4,inactive
B230340J04Rik,3,86.8,85.7,inactive
Or51k2,1,48.8,38.6,inactive
Or51k2,2,87.5,78.1,inactive
Or51k2,3,41,47.9,inactive
Psmd10,1,71.5,61.9,inactive
Psmd10,2,64.8,91.8,inactive
Psmd10,3,71.9,76,inactive
Prr15l,1,94,84,inactive
Prr15l,2,103,86.8,inactive
Prr15l,3,123,156,active
Sil1,1,118,66.9,inactive
Sil1,2,41.5,29.7,inactive
Sil1,3,62.1,80.8,inactive
Postn,1,0,14.6,inactive
Postn,2,108,87.7,inactive
Or5w15,1,41.7,59.1,inactive
Or5w15,2,79.7,73.3,inactive
Or5w15,3,119,83.2,inactive
Wbp2,1,79.4,50.5,inactive
Wbp2,2,70.9,75.8,inactive
Wbp2,3,75.7,78.4,inactive
Rundc1,1,76,77.4,inactive
Rundc1,2,99.1,67.6,inactive
Rundc1,3,90.6,82.5,inactive
Acr,1,96,77.9,inactive
Acr,2,88.6,73,inactive
Acr,3,122,75.5,active
Fbxl2,1,65.5,50.2,inactive
Fbxl2,2,87.7,87.4,inactive
Fbxl2,3,59.9,47.6,inactive
Uimc1,1,58,41.5,inactive
Uimc1,2,43.7,50.7,inactive
Uimc1,3,55.7,82.4,inactive
Klrg2,1,74.3,45.6,inactive
Klrg2,2,85.1,93.1,inactive
Klrg2,3,102,75.7,inactive
Ppp1r3f,1,119,91.5,inactive
Ppp1r3f,2,80.5,70.4,inactive
Ppp1r3f,3,74.3,63.1,inactive
Zfp788,1,125,81.7,active
Zfp788,2,88.6,46.8,inactive
Zfp788,3,57.1,58.2,inactive
Tifa,1,102,136,inactive
Tifa,2,149,128,active
Tifa,3,155,121,active
